Measurements as given in paper doi:10.1101/2020.05.08.084087 (bioRxiv, 2020).
Results are given in words; binding and its absence hold for the method and conditions named. Binding seen in cells or lysates may run through a third protein. Some entries that bind do so weakly or less than the wild type. Tags and fused reporters may be left off the sequences shown.

By UniProt entry, the sequences of proteins in these tests, tags left out. Where a name states a change or a piece, a line headed by the entry shows the natural chain unless it says otherwise.
UniProt Q9C7F2: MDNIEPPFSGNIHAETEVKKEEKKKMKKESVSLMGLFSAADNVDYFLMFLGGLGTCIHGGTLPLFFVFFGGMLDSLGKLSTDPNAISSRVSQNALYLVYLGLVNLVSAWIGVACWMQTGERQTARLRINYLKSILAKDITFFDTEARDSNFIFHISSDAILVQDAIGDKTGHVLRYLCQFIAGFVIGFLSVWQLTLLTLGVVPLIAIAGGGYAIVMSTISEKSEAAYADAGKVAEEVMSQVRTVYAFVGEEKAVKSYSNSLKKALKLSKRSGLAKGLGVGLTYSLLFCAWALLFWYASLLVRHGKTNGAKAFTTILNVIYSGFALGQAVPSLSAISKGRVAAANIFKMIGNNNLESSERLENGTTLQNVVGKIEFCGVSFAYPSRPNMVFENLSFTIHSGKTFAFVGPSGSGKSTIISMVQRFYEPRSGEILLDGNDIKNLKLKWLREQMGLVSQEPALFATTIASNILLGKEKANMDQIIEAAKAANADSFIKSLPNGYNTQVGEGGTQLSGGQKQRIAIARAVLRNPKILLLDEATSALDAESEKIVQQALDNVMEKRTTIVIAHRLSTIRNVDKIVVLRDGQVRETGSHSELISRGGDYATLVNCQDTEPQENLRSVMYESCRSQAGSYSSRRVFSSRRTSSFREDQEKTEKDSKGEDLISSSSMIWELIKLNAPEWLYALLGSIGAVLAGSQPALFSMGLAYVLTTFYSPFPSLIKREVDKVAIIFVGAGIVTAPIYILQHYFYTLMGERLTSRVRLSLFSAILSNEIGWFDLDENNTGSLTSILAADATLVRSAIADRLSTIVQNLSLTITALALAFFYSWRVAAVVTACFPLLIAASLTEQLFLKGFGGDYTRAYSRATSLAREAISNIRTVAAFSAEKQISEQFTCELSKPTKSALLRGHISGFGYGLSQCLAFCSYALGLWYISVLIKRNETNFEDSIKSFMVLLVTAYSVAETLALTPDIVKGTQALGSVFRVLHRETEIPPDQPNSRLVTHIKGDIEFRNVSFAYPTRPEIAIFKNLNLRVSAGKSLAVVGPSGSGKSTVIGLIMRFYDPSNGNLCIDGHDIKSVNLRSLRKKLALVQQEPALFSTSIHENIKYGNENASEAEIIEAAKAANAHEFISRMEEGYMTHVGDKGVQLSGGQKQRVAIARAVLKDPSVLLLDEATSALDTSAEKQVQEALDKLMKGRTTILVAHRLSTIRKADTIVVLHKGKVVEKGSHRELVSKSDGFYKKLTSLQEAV

Experiments:
[1] = target: ABCB14-GFP (Arabidopsis) (UniProt Q9C7F2); experiment: co-IP
[2] = target: ABCB14-GFP P990E (Arabidopsis) (UniProt Q9C7F2); experiment: co-IP
[3] = target: ABCB14-GFP (Arabidopsis) (UniProt Q9C7F2); experiment: FRET or BRET
[4] = target: ABCB14-GFP P990E (Arabidopsis) (UniProt Q9C7F2); experiment: FRET or BRET
[5] = target: T1, ABCB4-YFP (Arabidopsis) (UniProt O80725); experiment: FRET or BRET
T1 sequence: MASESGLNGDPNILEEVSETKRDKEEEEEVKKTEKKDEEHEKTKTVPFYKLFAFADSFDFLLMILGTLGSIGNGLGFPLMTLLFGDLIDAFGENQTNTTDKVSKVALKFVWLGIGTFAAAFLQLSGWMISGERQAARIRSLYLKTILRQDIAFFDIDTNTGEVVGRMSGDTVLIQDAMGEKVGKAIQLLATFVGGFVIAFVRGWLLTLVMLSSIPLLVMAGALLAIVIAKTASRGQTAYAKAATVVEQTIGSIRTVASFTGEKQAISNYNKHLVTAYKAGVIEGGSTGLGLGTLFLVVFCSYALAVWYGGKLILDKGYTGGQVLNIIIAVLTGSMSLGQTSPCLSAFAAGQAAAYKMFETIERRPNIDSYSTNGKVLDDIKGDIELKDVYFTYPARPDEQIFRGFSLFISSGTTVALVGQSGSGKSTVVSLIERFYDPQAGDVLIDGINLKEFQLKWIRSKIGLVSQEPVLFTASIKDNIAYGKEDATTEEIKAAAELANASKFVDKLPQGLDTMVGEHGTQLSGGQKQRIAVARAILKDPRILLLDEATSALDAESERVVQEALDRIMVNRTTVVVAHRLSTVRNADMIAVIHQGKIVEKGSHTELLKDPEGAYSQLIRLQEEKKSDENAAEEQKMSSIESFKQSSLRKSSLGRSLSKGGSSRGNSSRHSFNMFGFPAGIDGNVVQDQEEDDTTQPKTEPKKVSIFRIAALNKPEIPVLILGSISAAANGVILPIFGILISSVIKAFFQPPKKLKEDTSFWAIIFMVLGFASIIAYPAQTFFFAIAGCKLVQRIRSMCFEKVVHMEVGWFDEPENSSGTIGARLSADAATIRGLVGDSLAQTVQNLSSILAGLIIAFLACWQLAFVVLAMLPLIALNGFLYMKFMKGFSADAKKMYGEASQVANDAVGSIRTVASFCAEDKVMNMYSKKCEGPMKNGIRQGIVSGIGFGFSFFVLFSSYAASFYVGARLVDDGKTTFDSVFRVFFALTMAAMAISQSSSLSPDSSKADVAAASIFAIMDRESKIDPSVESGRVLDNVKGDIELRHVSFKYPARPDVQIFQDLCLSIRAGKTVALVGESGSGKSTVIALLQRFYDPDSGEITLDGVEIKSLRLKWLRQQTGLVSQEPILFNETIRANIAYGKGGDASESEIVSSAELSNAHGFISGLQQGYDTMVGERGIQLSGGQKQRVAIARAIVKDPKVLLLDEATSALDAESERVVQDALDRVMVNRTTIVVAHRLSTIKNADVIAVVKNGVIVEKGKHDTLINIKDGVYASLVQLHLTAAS

[6] = target: T2, AUX1-YFP (Arabidopsis) (UniProt Q96247); experiment: FRET or BRET
T2 sequence: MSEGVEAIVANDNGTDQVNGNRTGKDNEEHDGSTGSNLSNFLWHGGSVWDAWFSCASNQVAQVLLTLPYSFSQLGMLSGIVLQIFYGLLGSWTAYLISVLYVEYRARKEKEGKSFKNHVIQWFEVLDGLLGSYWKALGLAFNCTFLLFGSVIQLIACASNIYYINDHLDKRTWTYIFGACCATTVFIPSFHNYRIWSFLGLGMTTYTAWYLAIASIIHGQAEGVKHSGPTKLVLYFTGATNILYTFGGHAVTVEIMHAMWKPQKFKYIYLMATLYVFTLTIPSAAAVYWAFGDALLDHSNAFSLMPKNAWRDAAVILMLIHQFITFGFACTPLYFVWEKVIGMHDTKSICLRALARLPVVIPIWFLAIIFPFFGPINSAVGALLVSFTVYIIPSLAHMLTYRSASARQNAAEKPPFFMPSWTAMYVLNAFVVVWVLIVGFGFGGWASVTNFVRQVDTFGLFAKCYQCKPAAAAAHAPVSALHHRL

B1: TWD1-Rluc (natural protein)
chain: MDESLEHQTQTHDQESEIVTEGSAVVHSEPSQEGNVPPKVDSEAEVLDEKVSKQIIKEGHGSKPSKYSTCFLHYRAWTKNSQHKFEDTWHEQQPIELVLGKEKKELAGLAIGVASMKSGERALVHVGWELAYGKEGNFSFPNVPPMADLLYEVEVIGFDETKEGKARSDMTVEERIGAADRRKMDGNSLFKEEKLEEAMQQYEMAIAYMGDDFMFQLYGKYQDMALAVKNPCHLNIAACLIKLKRYDEAIGHCNIVLTEEEKNPKALFRRGKAKAELGQMDSARDDFRKAQKYAPDDKAIRRELRALAEQEKALYQKQKEMYKGIFKGKDEGGAKSKSLFWLIVLWQWFVSLFSRIFRRHRVKAD
- binding [1]: no binding
- binding [2]: no binding
- binding [3]: no binding
- binding [4]: no binding
- binding [5]: binds
- binding [6]: no binding
